Source: PMC6597717
These are yes or no findings as the source states them, for the method shown. Binding seen in cells or lysates may run through a third protein. Some binding calls cover weakened binding; strength is not graded here.

Chains of the proteins cited; added tags and fusions are not shown.
UniProt Q8CJG0: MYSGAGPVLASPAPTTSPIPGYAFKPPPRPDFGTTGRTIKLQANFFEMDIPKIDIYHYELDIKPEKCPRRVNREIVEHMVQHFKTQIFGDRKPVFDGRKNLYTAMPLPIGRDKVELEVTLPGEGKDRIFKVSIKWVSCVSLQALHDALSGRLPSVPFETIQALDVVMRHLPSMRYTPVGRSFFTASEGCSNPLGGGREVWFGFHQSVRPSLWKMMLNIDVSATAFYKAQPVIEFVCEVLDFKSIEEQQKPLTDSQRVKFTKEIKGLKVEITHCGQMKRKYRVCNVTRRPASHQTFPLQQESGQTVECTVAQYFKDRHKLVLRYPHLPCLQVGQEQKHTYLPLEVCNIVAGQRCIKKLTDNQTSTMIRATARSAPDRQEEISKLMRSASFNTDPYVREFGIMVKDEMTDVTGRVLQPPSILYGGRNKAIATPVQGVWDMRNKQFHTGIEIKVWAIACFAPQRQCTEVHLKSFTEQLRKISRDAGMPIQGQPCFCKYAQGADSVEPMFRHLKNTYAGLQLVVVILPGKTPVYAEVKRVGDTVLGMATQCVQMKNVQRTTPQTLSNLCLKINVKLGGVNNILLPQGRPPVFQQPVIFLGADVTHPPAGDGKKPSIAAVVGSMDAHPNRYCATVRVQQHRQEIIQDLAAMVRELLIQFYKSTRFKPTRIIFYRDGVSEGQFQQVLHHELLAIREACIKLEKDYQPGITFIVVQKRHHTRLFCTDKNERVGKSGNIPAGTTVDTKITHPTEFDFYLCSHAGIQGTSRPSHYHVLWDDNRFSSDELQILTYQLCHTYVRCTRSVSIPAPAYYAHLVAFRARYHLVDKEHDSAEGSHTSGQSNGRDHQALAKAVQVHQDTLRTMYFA
UniProt Q7TMY7: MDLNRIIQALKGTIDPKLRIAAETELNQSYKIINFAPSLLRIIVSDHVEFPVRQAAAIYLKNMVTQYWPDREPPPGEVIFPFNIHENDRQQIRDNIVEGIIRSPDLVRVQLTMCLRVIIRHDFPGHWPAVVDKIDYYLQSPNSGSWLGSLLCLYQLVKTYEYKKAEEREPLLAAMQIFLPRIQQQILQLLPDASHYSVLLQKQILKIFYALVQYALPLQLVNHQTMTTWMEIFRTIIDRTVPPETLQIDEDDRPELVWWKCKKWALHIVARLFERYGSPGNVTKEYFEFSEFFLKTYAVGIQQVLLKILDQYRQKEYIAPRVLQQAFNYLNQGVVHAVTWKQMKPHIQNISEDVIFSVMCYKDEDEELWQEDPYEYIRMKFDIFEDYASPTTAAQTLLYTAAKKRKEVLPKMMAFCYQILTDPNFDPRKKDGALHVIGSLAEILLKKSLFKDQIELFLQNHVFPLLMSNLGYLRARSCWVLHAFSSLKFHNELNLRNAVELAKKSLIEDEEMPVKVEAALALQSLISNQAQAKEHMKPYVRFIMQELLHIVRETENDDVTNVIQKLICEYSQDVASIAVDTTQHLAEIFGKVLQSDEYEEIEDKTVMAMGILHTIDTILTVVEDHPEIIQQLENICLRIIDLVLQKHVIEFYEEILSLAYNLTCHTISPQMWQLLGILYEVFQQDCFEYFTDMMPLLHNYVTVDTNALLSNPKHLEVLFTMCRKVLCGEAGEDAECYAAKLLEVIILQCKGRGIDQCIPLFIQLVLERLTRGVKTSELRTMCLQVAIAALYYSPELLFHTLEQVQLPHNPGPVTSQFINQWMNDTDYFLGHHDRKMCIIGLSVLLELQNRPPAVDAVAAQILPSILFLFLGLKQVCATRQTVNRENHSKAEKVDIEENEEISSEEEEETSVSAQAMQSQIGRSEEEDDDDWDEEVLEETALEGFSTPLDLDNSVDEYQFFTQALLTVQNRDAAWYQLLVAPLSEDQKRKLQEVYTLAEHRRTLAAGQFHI

Experiments:
AGO2 NanoLuc [1] = target: AGO2 NanoLuc (UniProt Q8CJG0); experiment: FRET or BRET; NanoBRET in HL-1 cells transfected with AGO2 NanoLuc and IPO8-Halo, in presence of IWR-1; 100 nM NanoBRET 618 Ligand, signals detected 6 hours after treatment
AGO2 NanoLuc [2] = target: AGO2 NanoLuc (UniProt Q8CJG0); experiment: FRET or BRET; NanoBRET in HL-1 cells transfected with AGO2 NanoLuc and IPO8-Halo, without IWR-1; 100 nM NanoBRET 618 Ligand, signals detected 6 hours after treatment

IPO8-Halo (from UniProt Q7TMY7 1-1010)
binding (AGO2 NanoLuc [1]): binds | binding (AGO2 NanoLuc [2]): no binding (condition: cells without IWR-1)
